Publication PMC10506462
Results are given in words; binding and its absence hold for the method and conditions named. In cells and extracts the contact can be indirect. Sequences can lack the tags named with a protein.

Amino acid sequences for entries named in this document (tags omitted).
UniProt P31941: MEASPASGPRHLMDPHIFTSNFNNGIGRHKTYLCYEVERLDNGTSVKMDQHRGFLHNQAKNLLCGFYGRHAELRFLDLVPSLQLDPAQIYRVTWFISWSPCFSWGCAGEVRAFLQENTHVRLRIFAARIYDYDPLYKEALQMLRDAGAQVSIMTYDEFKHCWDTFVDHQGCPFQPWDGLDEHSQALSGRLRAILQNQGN
UniProt Q9UH17: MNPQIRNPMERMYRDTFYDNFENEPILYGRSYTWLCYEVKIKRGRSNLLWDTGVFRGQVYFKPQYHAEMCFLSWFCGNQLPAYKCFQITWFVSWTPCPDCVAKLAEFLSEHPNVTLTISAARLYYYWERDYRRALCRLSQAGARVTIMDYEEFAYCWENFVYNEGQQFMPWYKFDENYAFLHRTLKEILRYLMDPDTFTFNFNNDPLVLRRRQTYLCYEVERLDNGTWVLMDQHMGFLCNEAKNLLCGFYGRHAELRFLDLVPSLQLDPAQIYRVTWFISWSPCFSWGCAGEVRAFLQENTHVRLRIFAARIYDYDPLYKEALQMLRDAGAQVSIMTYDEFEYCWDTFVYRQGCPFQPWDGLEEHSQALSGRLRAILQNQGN
UniProt Q9HC16: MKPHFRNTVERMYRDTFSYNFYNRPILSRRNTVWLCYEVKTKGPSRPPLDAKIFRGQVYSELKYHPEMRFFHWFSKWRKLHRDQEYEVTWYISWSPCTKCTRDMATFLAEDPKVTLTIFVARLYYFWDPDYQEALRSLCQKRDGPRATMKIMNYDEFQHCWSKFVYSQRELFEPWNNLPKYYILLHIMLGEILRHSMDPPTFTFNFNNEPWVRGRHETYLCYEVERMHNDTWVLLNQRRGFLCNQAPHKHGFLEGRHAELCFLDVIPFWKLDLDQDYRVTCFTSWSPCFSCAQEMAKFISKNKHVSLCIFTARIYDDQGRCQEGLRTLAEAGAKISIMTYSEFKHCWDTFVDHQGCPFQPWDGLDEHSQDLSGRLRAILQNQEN

Legend:
[1] = target: T1, HCMV UL45-FLAG (large subunit of the human cytomegalovirus ribonucleotide reductase) (human cytomegalovirus) (UniProt P16782); assay: co-IP; 293T cells co-transfected with RNR-FLAG and A3-HA; lysis buffer 150 mM NaCl, 50 mM Tris-HCl, 10% glycerol, 1% IGEPAL, pH 7.4; anti-FLAG M2 magnetic beads overnight at 4°C; eluted with 3xFLAG peptide; immunoblot with anti-HA and anti-FLAG
T1 sequence: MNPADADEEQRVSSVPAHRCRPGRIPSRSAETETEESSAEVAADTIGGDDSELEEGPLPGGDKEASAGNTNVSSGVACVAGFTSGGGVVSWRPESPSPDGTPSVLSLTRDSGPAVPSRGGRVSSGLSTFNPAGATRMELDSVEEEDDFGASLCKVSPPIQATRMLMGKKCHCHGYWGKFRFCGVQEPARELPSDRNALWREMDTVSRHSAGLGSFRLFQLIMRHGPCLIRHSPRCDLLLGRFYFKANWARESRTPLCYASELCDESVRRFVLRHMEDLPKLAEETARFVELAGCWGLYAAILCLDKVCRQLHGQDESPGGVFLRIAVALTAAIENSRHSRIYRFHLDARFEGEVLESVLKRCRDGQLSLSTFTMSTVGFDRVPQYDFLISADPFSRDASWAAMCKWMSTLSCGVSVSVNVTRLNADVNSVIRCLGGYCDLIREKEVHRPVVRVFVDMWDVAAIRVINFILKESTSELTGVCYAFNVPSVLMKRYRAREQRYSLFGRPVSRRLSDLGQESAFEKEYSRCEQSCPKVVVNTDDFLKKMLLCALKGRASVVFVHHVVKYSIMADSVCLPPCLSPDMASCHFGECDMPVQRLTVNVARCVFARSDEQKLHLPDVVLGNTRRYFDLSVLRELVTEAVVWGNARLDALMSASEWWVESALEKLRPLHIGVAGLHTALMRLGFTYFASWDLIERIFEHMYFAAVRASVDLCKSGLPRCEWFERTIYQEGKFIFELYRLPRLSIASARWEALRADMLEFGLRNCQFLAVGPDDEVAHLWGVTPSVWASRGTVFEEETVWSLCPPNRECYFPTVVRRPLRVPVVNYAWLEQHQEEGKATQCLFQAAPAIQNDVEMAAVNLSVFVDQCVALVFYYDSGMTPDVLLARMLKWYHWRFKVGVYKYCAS

[2] = target: T2, EBV BORF2-FLAG (large subunit of the Epstein-Barr virus ribonucleotide reductase) (Epstein-Barr virus) (UniProt P03190); assay: as above
T2 sequence: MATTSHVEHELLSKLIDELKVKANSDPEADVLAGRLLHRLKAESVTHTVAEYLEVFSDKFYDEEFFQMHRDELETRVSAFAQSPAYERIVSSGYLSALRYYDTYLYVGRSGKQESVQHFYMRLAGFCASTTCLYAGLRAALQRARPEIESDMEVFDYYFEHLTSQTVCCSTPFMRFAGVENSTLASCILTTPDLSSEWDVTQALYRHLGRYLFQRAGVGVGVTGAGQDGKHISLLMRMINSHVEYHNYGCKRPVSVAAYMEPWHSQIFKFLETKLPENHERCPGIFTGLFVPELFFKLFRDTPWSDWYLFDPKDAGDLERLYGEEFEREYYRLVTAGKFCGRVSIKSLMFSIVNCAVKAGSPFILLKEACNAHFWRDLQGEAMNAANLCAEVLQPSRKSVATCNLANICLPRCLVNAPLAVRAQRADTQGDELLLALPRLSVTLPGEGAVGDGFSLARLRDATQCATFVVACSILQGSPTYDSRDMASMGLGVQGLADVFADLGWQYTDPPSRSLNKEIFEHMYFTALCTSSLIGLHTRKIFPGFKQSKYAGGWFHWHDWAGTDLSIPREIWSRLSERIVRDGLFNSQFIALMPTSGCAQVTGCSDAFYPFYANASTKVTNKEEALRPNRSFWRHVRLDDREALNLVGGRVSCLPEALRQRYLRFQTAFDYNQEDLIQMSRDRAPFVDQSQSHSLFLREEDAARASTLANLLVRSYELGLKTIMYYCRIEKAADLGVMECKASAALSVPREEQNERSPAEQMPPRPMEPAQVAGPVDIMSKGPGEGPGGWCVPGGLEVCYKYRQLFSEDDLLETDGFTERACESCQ

human APOBEC3A-HA (from UniProt P31941 1-199) (enzyme)
binding [1]: no binding

human APOBEC3B-HA (from UniProt Q9UH17 1-382) (enzyme)
binding [1]: no binding

human APOBEC3G-HA (from UniProt Q9HC16 1-384) (enzyme)
binding [2]: no binding
